From PubChem BioAssay AID2517 (National Center for Advancing Translational Sciences (NCATS), 2010)
In all, about 350,000 compounds went through this assay and about 1,200 (0.34%) were called active. Inconclusive means that the source gave no clear call. Such entries were picked first, then a sample of the others. Calls come from the whole dose curve; as a rule, active = well fitted inhibition curve with a large enough effect; inconclusive = small, poorly fitted or top-dose-only effect; inactive = no such curve, though single readings can be large or run the other way. A potency beside an inconclusive call is a rough fit, not a confirmed value.

Chains of the proteins cited; added tags and fusions are not shown.
UniProt P27695, whole entry, looked up: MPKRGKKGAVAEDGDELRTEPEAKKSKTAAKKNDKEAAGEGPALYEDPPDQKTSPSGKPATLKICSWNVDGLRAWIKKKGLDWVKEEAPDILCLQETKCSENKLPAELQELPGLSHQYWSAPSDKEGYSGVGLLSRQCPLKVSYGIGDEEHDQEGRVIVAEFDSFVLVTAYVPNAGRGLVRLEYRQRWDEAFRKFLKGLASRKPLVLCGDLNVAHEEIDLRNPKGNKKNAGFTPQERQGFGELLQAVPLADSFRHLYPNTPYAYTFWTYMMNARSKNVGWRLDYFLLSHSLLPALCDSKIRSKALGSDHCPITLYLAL

biological target: DNA repair nuclease/redox regulator APEX1 (Homo sapiens) (UniProt P27695); assay: qHTS Assay for Inhibitors of the Human Apurinic/apyrimidinic Endonuclease 1 (APE1); settings: recombinant APE1, TAMRA/BHQ-2 abasic DNA cleavage fluorescence; activity change, negative = inhibition: at 65.8 µM (top of the series); note: nearly all actives have a fitted effect of over 55% in size;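 for activity change, negative = inhibition: plate controls were vehicle for no effect and reference inhibitor for full effect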
Procedure, shortened: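 Substrate: short duplex with […] THF abasic site, 5'-TAMRA and 3'-BHQ-2, 50 nM final. APE1 at 0.75 nM, preincubated 15 min RT with compound. Fluorescence increase from first to third read measured activity.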
Potency is the fitted concentration of half-maximal effect.

Row | Structure (SMILES) | Potency | activity change, negative = inhibition
1 | CCOC(=O)Cn1c(-c2ccccc2)ccc(C#N)c1=O | inactive | –
2 | C[C@H](CCC(=O)O)C1CC[C@H]2C3CC[C@@H]4C[C@H](O)CC[C@]4(C)C3C[C@H](O)[C@]12C (stereo not given in full) | inactive | –
3 | CC1CC(C)CN(C(=O)COc2ccc([N+](=O)[O-])cc2Cl)C1 (stereo not given) | inconclusive: 28.2 µM [inhibitor, partial curve, poor fit] | –
4 | Cc1[nH]n(-c2ccc(C(=O)O)cc2)c(=O)c1CCO | inconclusive: 8.91 µM [inhibitor, single point] | –
5 | CCOC(=O)OCC1OC(C#Cc2ccc(C(C)(C)C)cc2)C=CC1OC(=O)OCC (stereo not given) | inconclusive: 3.16 µM [inhibitor, single point] | –
6 | CC#CCN1c2ccccc2[C@]23C[C@@H](C(=O)OC)N(C(=O)c4cccs4)C2=NC(C(=O)OC)=C(C(=O)OC)[C@H]13 | – | inactive: -1.13% [at 12.4 µM]
7 | CC(=O)Nc1cc2c(s1)c1cnn(Cc3ccccc3F)c(=O)c1n2C | inconclusive: 23.8 µM [inhibitor, single point] | –
8 | CN(C)S(=O)(=O)c1ccc(NC(=O)CSc2nnnn2C)cc1 | inconclusive: 10 µM [inhibitor, single point] | –
9 | COc1cc2c(cc1NC(=O)c1cccc([N+](=O)[O-])c1C)oc1ccccc12 | inconclusive: 0.01 µM [inhibitor, full curve, poor fit] | –
10 | C=CC1C(N2CCOCC2)C(C)(C)S1(=O)=O (stereo not given) | inconclusive: 4.47 µM [inhibitor, single point] | –
11 | COC(=O)[C@@]1(Cc2ccc(F)cc2)[C@H]2c3cc(C(=O)N4CCCC4)n(CCc4c[nH]c5ccccc45)c3C[C@H]2CN1C(=O)c1ccccc1 | inconclusive: 22.4 µM [inhibitor, partial curve, poor fit] | –
12 | COc1ccc2c(c1)c(C(=O)N/N=C/c1ccc(O)c(O)c1)c(C)n2C | inactive | –
13 | CCC1CCCCN1C(=O)COc1ccccc1NC(C)=O (stereo not given) | inconclusive: 39.8 µM [inhibitor, partial curve] | –
14 | Cc1ccc(NC(=O)c2ccc(F)cc2)nc1 | inconclusive: 3.98 µM [inhibitor, partial curve] | –
15 | CCCn1c(-c2ccc(F)cc2)nc2c(NC(C)CN(C)C)nc(C)nc21 (stereo not given) | inactive | –
16 | COC(=O)c1sc(N)c(C(=O)OC)c1COC(=O)C1CC(=O)N(Cc2ccco2)C1 (stereo not given) | inactive | –
17 | O=C(N/N=C/c1ccco1)c1ccc(N2CCCC2=O)cc1 | inconclusive: 44.7 µM [inhibitor, single point] | –
18 | CCOC(=O)OCC1OC(C#Cc2ccc(Br)cc2)C=CC1OC(=O)OCC (stereo not given) | inconclusive: 3.55 µM [inhibitor, single point] | –
19 | COc1ccc(S(=O)(=O)Nc2ccccc2-c2nnn(CC(=O)Nc3ccccc3OC)n2)cc1 | inconclusive: 20 µM [inhibitor, single point] | –
20 | CCCCn1c(SCC(=O)NCc2ccco2)nc2c(sc3ccccc32)c1=O | inactive | –
21 | CCOc1ccc(NC(=O)Cn2nnc(C(=O)NCCc3ccc(OC)c(OC)c3)c2N)cc1 | inconclusive: 44.7 µM [inhibitor, single point] | –
22 | CCOC(=O)c1ccccc1OC(=O)CS(=O)c1ccccc1[N+](=O)[O-] (stereo not given) | inconclusive: 14.1 µM [inhibitor, partial curve] | –

Row | Structure (SMILES) | Potency | activity change, negative = inhibition
23 | O=C1C2C(C(=O)N1c1ccc3c(c1)OCO3)C1C=CC2C12CC2 (stereo not given) | inconclusive: 3.16 µM [inhibitor, full curve, poor fit] | –
24 | O=C(c1cc2c(F)cccc2s1)N1CCCC1 | inconclusive: 39.8 µM [inhibitor, single point] | –
25 | CN(C)CCn1c(=S)[nH]c2ccccc2c1=O | inconclusive: 20 µM [inhibitor, partial curve] | –
26 | CCOC(=O)C(C)Sc1cnccn1 (stereo not given) | inconclusive: 3.16 µM [inhibitor, single point] | –
27 | O=C(COc1cccnc1[N+](=O)[O-])c1ccc(Cl)s1 | inconclusive: 10 µM [inhibitor, single point] | –
28 | O=C(OCC(=O)C12CC3CC(CC(C3)C1)C2)c1cccnc1 | inconclusive: 0.0447 µM [inhibitor, full curve, poor fit] | –
29 | O=C(O)c1ccccc1O[C@@H]1O[C@H](C(=O)O)[C@@H](O)[C@H](O)[C@H]1O | inconclusive: 28.2 µM [inhibitor, single point] | –
30 | CC(=O)Nc1ccc(S(=O)(=O)NNC(=O)c2cccc(Cl)c2)cc1 | inconclusive: 0.0501 µM [inhibitor, full curve, poor fit] | –
31 | COc1ccc(OC2C=CC(C#Cc3ccc(Br)cc3)OC2CO)c(C(C)(C)C)c1 (stereo not given) | inconclusive: 7.94 µM [inhibitor, single point] | –
32 | CNC(=O)c1nc(C)n(-c2ccc(Cl)cc2Cl)n1 | inactive | –
33 | CCC(=O)NC(O)C(=O)c1ccc(C)cc1 (stereo not given) | inconclusive: 7.08 µM [inhibitor, single point] | –
34 | CC(C)S(=O)(=O)C1=NSC2=NC(=O)/C(=C\c3ccc(-c4ccccc4)o3)C(=N)N21 | inactive | –
35 | CC(C)C[C@H](NC(=O)c1nc[nH]c1C(=O)NC1CCN(C(=O)OC(C)(C)C)CC1)C(=O)OCc1ccccc1 | inconclusive: 11.2 µM [inhibitor, partial curve] | –
36 | COc1ccc(OC)c(Nc2nc(-c3ccc(O)c(O)c3)cs2)c1 | inconclusive: 2.51 µM [inhibitor, full curve] | –
37 | O=C(O)c1ccc(COc2ccc3ccccc3c2/C=C2/NC(=O)N(Cc3ccc(F)cc3)C2=O)cc1 | inactive | –
38 | CCCCCOc1ccc(Br)cc1CSC(=N)N | inconclusive: 39.8 µM [inhibitor, single point] | –
39 | CC(C)[C@H]1CN=C2N(C[C@H](C)NC(=O)CCC3CCCCC3)[C@H](Cc3ccc(O)cc3)CN21 | inconclusive: 39.8 µM [inhibitor, single point] | –
40 | CC(Sc1nc(NC(C)(C)C)nc(N(C)C)n1)C(=O)Nc1ccccc1 (stereo not given) | inconclusive: 4.47 µM [inhibitor, partial curve, poor fit] | –
41 | O=C1c2ccccc2-c2onc3ccc(N4CCCC4)c1c23 | active: 20 µM | –
42 | O=C(O)CN1C(=O)S/C(=C\c2cccnc2)C1=O | inconclusive: 0.316 µM [inhibitor, partial curve] | –
43 | Cc1c([N+](=O)[O-])cc(C(=O)Oc2ccc(Br)cc2C(=S)N2CCCCC2)cc1[N+](=O)[O-] | inconclusive: 25.1 µM [inhibitor, single point] | –
44 | CCOc1ccc(NC(=S)Nc2ccc(Br)cc2Cl)cc1 | inconclusive: 3.55 µM [inhibitor, single point] | –

Row | Structure (SMILES) | Potency | activity change, negative = inhibition
45 | COC/C=C/C1=CC2=CC(=O)C(C)(OC(=O)CCc3ccccc3)C(=O)C2=CO1 (stereo not given) | inactive | –
46 | Cc1ccc(S(=O)(=O)N2CCN(S(=O)(=O)c3ccc(C)cc3)C2c2ccccc2)cc1 | inconclusive: 2 µM [inhibitor, partial curve, poor fit] | –
47 | Cc1cccn2c(=O)c(C=NCCO)c(NCc3ccco3)nc12 | inconclusive: 15.8 µM [inhibitor, partial curve] | –
48 | O=C(COC(=O)Cc1ccc(Cl)cc1)NCc1ccco1 | inconclusive: 11.9 µM [inhibitor, partial curve] | –
49 | COc1ccccc1NC(=O)c1c([N+](=O)[O-])cnn1C | inactive | –
50 | COC(=O)NC(CC(C)=O)c1ccc2c(c1)OCO2 (stereo not given) | inconclusive: 3.16 µM [inhibitor, single point] | –
51 | CC1=C(CCC(=O)O)c2cc3nc(cc4[nH]c(cc5[nH]c(cc1n2)c(C)c5C(C)O)c(C)c4C(C)O)C(C)=C3CCC(=O)O (stereo not given) | inconclusive: 25.1 µM [inhibitor, single point] | –
52 | Cn1c(-c2sccc2OCc2ccc(Cl)cc2Cl)n[nH]c1=S | inconclusive: 0.1 µM [inhibitor, full curve] | –
53 | Cc1cccn2c(=O)c3cc(C#N)c(=NC(=O)c4cccs4)n(CC(C)C)c3nc12 | inactive | –
54 | CCOc1ccc(C(C)=O)cc1COC(=O)c1cccnc1SC | inconclusive: 44.7 µM [inhibitor, single point] | –
55 | Cc1cccc(C)c1NC(=S)NC(=O)c1ccccc1F | inconclusive: 0.398 µM [inhibitor, full curve, poor fit] | –
56 | Cc1ccc(/C=C(/NC(=O)c2ccccc2)C(=O)NC(Cc2c[nH]c3ccccc23)C(=O)O)cc1 (stereo not given) | inactive | –
57 | COc1ccc(C2C3=C(NCCN=C3c3ccccc3)C(=O)N2c2ccccc2)c(OC)c1 (stereo not given) | inconclusive: 39.8 µM [inhibitor, single point] | –
58 | COc1ccccc1N1CCN(C(=O)c2ccc(Cl)c(S(=O)(=O)N3CCCC3)c2)CC1 | inconclusive: 31.6 µM [inhibitor, single point] | –
59 | C/C(=N/NC(=O)c1ccn(C)n1)c1ccncc1 | inconclusive: 0.0398 µM [inhibitor, full curve] | –
60 | CCN(CC)CCNC(=O)c1cc(-c2ccc(Br)s2)nc2ccccc12 | inactive | –
61 | Cc1[nH]n(-c2ccccc2)c(=O)c1N=Nc1ccccc1 | inconclusive: 7.94 µM [inhibitor, single point] | –
62 | CS(=O)(=O)N(Cc1ccccc1)c1ccc(C(=O)N2CCN(c3cccc(Cl)c3)CC2)cc1 | inconclusive: 7.94 µM [inhibitor, single point] | –
63 | CCOC(=O)C1=C(C)NC(C)=C(C(=O)OCC)C1/C=C/c1ccccc1OC | inconclusive: 25.1 µM [inhibitor, single point] | –
64 | CCOC(=O)NC1(NC(C)C)Oc2ccccc2O1 | active: 22.4 µM | –
65 | COc1ccc(-c2noc(CCCOc3ccccc3)n2)cc1OC | inconclusive: 22.4 µM [inhibitor, partial curve, poor fit] | –

Looked up by structure from the list above, 3 records:
Row | Structure (SMILES) | Potency | activity change, negative = inhibition
64 | CCOC(=O)NC1(NC(C)C)Oc2ccccc2O1 | active: 22.4 µM | –
63 | CCOC(=O)C1=C(C)NC(C)=C(C(=O)OCC)C1/C=C/c1ccccc1OC | inconclusive: 25.1 µM [inhibitor, single point] | –
51 | CC1=C(CCC(=O)O)c2cc3nc(cc4[nH]c(cc5[nH]c(cc1n2)c(C)c5C(C)O)c(C)c4C(C)O)C(C)=C3CCC(=O)O (stereo not given) | inconclusive: 25.1 µM [inhibitor, single point] | –
